This note sets out measurements from ChEMBL document CHEMBL1687929, “Design, synthesis, and biological evaluation of imidazolyl derivatives of 4,7-disubstituted coumarins as aromatase inhibitors selective over 17-α-hydroxylase/C17-20 lyase” (J Med Chem, 2011).

The data set deals with T1, CYP17 (steroid 17-alpha-hydroxylase/17,20 lyase) (Homo sapiens, UniProt P05093).
T1 sequence (P05093 whole entry): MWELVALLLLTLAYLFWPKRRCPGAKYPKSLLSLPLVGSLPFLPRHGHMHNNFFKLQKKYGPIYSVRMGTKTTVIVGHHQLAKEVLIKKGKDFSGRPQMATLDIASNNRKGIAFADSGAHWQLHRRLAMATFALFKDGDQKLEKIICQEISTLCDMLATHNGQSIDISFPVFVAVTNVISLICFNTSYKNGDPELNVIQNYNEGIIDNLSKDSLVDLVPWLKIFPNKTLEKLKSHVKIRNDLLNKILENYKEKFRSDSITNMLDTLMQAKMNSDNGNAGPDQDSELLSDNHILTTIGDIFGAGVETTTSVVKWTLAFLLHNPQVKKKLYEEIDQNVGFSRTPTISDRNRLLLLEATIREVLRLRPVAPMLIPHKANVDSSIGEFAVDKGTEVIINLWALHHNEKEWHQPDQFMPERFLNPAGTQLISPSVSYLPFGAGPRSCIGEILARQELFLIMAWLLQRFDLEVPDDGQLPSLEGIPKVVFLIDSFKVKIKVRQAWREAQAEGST
In words: in vitro.

As usually defined, the inhibition is the percentage by which the read-out fell short of the control. Compound `N#Cc1ccc(C2CCCc3cncn32)cc1` (stereo unspecified) [FADROZOLE] came in with an inhibition at 2.5 µM of 2%.
